According to PubChem BioAssay AID504467 (National Center for Advancing Translational Sciences (NCATS), 2011):
About 7,700 (2.3%) of roughly 330,000 compounds were called active. The shares of active, inactive and inconclusive entries below differ from those in the screen. Calls follow the shape of the dose curve; as a rule, active = well fitted inhibition curve with a large enough effect; inconclusive = small, poorly fitted or top-dose-only effect, or effect the other way; inactive = flat fitted curve, though single readings scatter. Where the call is inconclusive, the potency comes from a doubtful curve fit.

Experiment: qHTS screen for small molecules that inhibit ELG1-dependent DNA repair in human embryonic kidney (HEK293T) cells expressing luciferase-tagged ELG1; also: nearly all actives have a fitted effect of over 55% in size
Settings: HEK293T ELG1-luciferase reporter, luminescence, 16 h, DNA damage induced by 5-fluorouridine; series mostly up to 46.1 µM
Procedure, shortened: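 Reporter activity after DNA damage by 5-fluorouridine is monitored. Compound-treated cells incubate 16 hr at 37 °C, then ONE-Glo is added for 30 min before luminescence reading.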
Potency is read from the fitted curve at half-maximal effect.

| SMILES | Potency |
| --- | --- |
| Cc1cc(OCC(=O)Nc2ccc(CN3CCOCC3)cc2)ccc1Cl | inactive |
| CN(C)c1ccc(-c2cc3ccccc3c(=O)o2)cc1 | inconclusive: 0.82 µM [activator, full curve] |
| O=C(c1cc2ccccc2o1)N1CCN(S(=O)(=O)c2cccs2)CC1 | inconclusive: 29.1 µM [inhibitor, partial curve, poor fit] |
| COC(=O)c1ccc(C2SCC(=O)N2Cc2ccccc2)cc1 (centres undefined) | inconclusive: 25.9 µM [inhibitor, single point] |
| Cc1cc(C)c(C)c(OCCCCN2CCCCC2)c1 | inactive |
| CCCC[C@H]1COCCS(=O)(=O)N1Cc1ccc(F)cc1 | inactive |
| CN(c1ccccc1)S(=O)(=O)c1ccc(Cl)c(C(=O)Nc2ccccc2N2CCOCC2)c1 | inconclusive: 20.6 µM [inhibitor, partial curve] |
| Cc1ccc(-c2nnc(-c3ccncc3)n2-c2ccc(C)cc2)cc1 | inconclusive: 18.4 µM [activator, single point] |
| Cc1ccccc1-c1cc(C(=O)Nc2sc(C)c(C)c2C(N)=O)c2ccccc2n1 | inconclusive: 23.1 µM [inhibitor, single point] |
| c1ccc2cc(-c3csnn3)ccc2c1 | inconclusive: 18.4 µM [activator, partial curve, poor fit] |
| Cc1cc(C)c2cc(C(=O)N3CCC(C(=O)c4ccc(F)cc4)CC3)[nH]c2c1 | inconclusive: 20.6 µM [inhibitor, single point] |
| COc1cccc(/C=C/C(=O)OCC(=O)NCC2CCCO2)c1OC (centres undefined) | inconclusive: 11.6 µM [activator, partial curve] |
| CCOc1cc(-c2nc3cc(C)ccn3c2NCC2CCCO2)ccc1O (centres undefined) | inconclusive: 29.1 µM [inhibitor, single point] |
| O=C(c1cnn2c(C(F)F)cc(-c3ccccc3)nc12)N1CCN(Cc2ccc3c(c2)OCO3)CC1 | inconclusive: 11.6 µM [inhibitor, partial curve] |
| CSCCC(NC(=O)c1ccc(Cl)cc1Cl)C(=O)OC1CCCCC1=O (centres undefined) | inconclusive: 2.06 µM [activator, partial curve, poor fit] |
| CC(C)(C)c1ccc(-c2nnc(SCC(=O)c3ccc4c(c3)OCCO4)o2)cc1 | inactive |
| Cc1ccc(NC(=O)C2COc3ccccc3O2)cc1 (centres undefined) | inconclusive: 0.891 µM [activator, full curve] |
| CN(C)c1cccc2c1c(NC(=O)Nc1ccc(F)cc1F)nn2C | inactive |
| CCOC(=O)/C=C/C(=O)OCC(=O)Nc1ccc(Cl)cn1 | inactive |
| O=C(c1ccco1)N1CCN(Cc2nc(-c3cccs3)no2)CC1 | inconclusive: 20.6 µM [activator, partial curve, poor fit] |
| CCN(CC1COc2ccccc2O1)C(=O)CN1C(=O)NC(C)(c2ccccc2)C1=O (centres undefined) | inactive |
| COc1ccc(NC(=O)c2cc(CC(C)C)nc3ccccc23)cc1 | active: 23.1 µM |

| SMILES | Potency |
| --- | --- |
| O=C(Nc1ccc2c(c1)OCO2)O[C@@H]1C[C@H]2CCC(=O)N3CC[C@@H](C1)[C@@H]23 | inconclusive: 0.259 µM [inhibitor, single point] |
| CC(C(=O)OCC(=O)c1cccc([N+](=O)[O-])c1)N1C(=O)C2C3C=CC(C3)C2C1=O (centres undefined) | inactive |
| CC1CC(C)CN(CC(O)COCc2ccccc2)C1 (centres undefined) | inactive |
| O=C(C(c1ccccc1)c1ccccc1)N1CCN(CC(O)COc2ccccc2)CC1 (centres undefined) | inconclusive: 29.1 µM [inhibitor, single point] |
| COc1cccc(-n2nc(C(C)=O)c(=O)[nH]c2=O)c1 | inconclusive: 16.4 µM [inhibitor, single point] |
| O=C1c2cccc(OCC(=O)N3CCCc4ccccc43)c2CCN1Cc1ccc(F)cc1 | active: 23.1 µM |
| COC(=O)c1cc(CSc2nc3ccccc3[nH]2)oc1C | inconclusive: 2.31 µM [activator, partial curve] |
| CC(Sc1n[nH]c(-c2cccs2)n1)C(=O)Nc1ccc(C(N)=O)cc1 (centres undefined) | inconclusive: 0.82 µM [activator, full curve, poor fit] |
| CCOc1ccc(NC(=O)NCc2ccccn2)cc1 | inconclusive: 23.1 µM [activator, single point] |
| COc1cccc(NC(=O)CN(C)C(=O)CCc2nc3sc4c(c3c(=O)[nH]2)CCCC4)c1 | inactive |
| COc1ccc(OCC(=O)Nc2cccc(-c3nc4ccccc4o3)c2)cc1 | inconclusive: 5.8 µM [activator, full curve] |
| O=C(CNc1cc(S(=O)(=O)N2CCOCC2)ccc1NCC1CCCO1)Nc1ccc(C(F)(F)F)cc1 (centres undefined) | inconclusive: 6.51 µM [inhibitor, partial curve] |
| CN(C)c1ccc(C(=O)OCc2cc(=O)n3ccsc3n2)cc1 | inconclusive: 16.4 µM [activator, partial curve] |
| Cc1ccn(-c2cc(O)c(-n3ccc(C)n3)cc2O)n1 | inconclusive: 14.6 µM [activator, partial curve] |
| COC(=O)CN(C(=O)CSc1nnc(-c2cccc(OC)c2)o1)c1ccc(OC)cc1 | inconclusive: 35.5 µM [inhibitor, single point] |
| CCOC(=O)c1c(NC(=O)c2cccnc2)sc(C)c1C | inactive |
| CCn1c(SCc2nc(N)nc(N3CCCCC3)n2)nc2c1c(=O)n(C)c(=O)n2C | inconclusive: 32.6 µM [inhibitor, single point] |
| Cc1ccc(C(=O)Cn2cnc3ccccc3c2=O)cc1 | inconclusive: 11.6 µM [activator, partial curve] |
| C/C(CC(=O)Nc1ccc(Cl)c(C(F)(F)F)c1)=N\NC(N)=S | inconclusive: 16.4 µM [activator, partial curve] |
| Cc1ccc(Cn2nc(C)c(C(=O)N3CCN(S(=O)(=O)/C=C/c4ccccc4)CC3)c2C)cc1 | inconclusive: 29.1 µM [inhibitor, single point] |
| COc1ccc(NC(=O)c2oc3ccccc3c2NC(=O)c2ccc3c(c2)OCO3)cc1 | active: 9.2 µM |
| CCn1cc(C(=O)O)c(=O)c2cc(F)c(N3CCN(C(=S)Nc4ccccc4OC)CC3)cc21 | inactive |

A stretch from further up, for reference:

| SMILES | Potency |
| --- | --- |
| COc1ccc(NC(=O)c2oc3ccccc3c2NC(=O)c2ccc3c(c2)OCO3)cc1 | active: 9.2 µM |
| CCn1cc(C(=O)O)c(=O)c2cc(F)c(N3CCN(C(=S)Nc4ccccc4OC)CC3)cc21 | inactive |
